Results published in article PMC7819943, “Rice protein-binding microarrays: a tool to detect cis-acting elements near promoter regions in rice”.
The other results are listed elsewhere or left out.

The sequences below were run against T1, OsSMF1 (Oryza sativa, UniProt Q6ZLB0 1-436) (assay: protein-binding microarray (RPBM); PBS, 2% BSA, 51.3 ng/ul salmon testes DNA, 50 uM zinc acetate, 200 nM TF, 25 C, 1 h; high values mean tight binding). Conditions: protein: recombinant; tags: N-terminal polyhistidine and DsRed monomer fusion (pET32a); chain copies: 2; label: CyDye5-dUTP incorporated in the synthesized complementary strand; 3' TTTTT single-stranded linker to array surface; dsDNA, one strand shown.
T1 sequence: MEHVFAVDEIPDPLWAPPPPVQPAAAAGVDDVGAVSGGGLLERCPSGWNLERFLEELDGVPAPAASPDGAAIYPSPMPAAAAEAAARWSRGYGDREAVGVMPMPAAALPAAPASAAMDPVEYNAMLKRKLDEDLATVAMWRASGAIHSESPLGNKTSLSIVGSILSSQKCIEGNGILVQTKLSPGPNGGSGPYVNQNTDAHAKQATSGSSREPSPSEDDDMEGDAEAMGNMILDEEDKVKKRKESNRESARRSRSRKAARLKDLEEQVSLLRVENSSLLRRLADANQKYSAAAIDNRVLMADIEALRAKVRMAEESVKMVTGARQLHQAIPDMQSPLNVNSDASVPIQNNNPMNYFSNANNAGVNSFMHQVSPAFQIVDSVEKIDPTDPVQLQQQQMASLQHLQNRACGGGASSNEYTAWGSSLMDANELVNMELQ
In short: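 The binding signal for each feature is its fluorescence intensity in arbitrary units. An Axon 4000B scanner was used to read a custom Agilent array that had been made double-stranded with Cy5-dUTP primer extension, blocked with 2% BSA, incubated at 25 °C for 1 h with 200 nM protein in PBS, 2% BSA, salmon testes DNA and 50 µM zinc acetate, and washed. The protein was an N-terminal polyhistidine–DsRed transcription factor fusion from E. coli BL21-CodonPlus, purified on Ni–NTA.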

**Q.** For “GACATAAAGATTTACCCAGCTTTATTTAGTAAGCTTAGTGCGGAGTCACCTAGTGCAG”, which binding signal is on record?
**A.** 4710 fluorescence intensity (a.u.)

**Q.** “TAAAGTTGTTCTCCCAAGTTGCTGTATTTTAAAATATCCACGGAGTCACCTAGTGCAG” was tested. Which binding signal did it give?
**A.** 16100 fluorescence intensity (a.u.)

**Q.** How did the binding signal turn out when “GTAAAACTTTTATATATTTGTTCGTAGCGACTTGAAAGCCCGGAGTCACCTAGTGCAG” was run?
**A.** 3420 fluorescence intensity (a.u.)

**Q.** With “CCATTTGTACCAACTCATGATCGTCTTATCTTAGGACCTGCGGAGTCACCTAGTGCAG” as the sequence, how does the binding signal read?
**A.** 3160 fluorescence intensity (a.u.)

**Q.** For “ACAAACCGTCGGCCGCGCACTCCACCCCGTTCGCTCCTCTCGGAGTCACCTAGTGCAG”, which binding signal is on record?
**A.** 3140 fluorescence intensity (a.u.)

**Q.** “TACATTGCCACATACGATAGGCTTTTACTCCTTCATTAAACGGAGTCACCTAGTGCAG” was tested. Which binding signal did it give?
**A.** 3600 fluorescence intensity (a.u.)

**Q.** Which binding signal does the source give for “TAACATCGATTTTATGTTGATCACACACGTCACAGGTGGTCGGAGTCACCTAGTGCAG” here?
**A.** 10400 fluorescence intensity (a.u.)

**Q.** How did the binding signal turn out when “CGTTGAGCGCGCGCGTGTCCGGCGGGACACCCTCCTCCAGCGGAGTCACCTAGTGCAG” was run?
**A.** 3700 fluorescence intensity (a.u.)

**Q.** “GAGCTTCTAAACATTGGTCATTGGCAGTAAATAGTGCAGACGGAGTCACCTAGTGCAG” was tested. Which binding signal did it give?
**A.** 28900 fluorescence intensity (a.u.)

**Q.** With “TGCAAACACCTGCACATCACTACGCCGACAGCTTAAAATTCGGAGTCACCTAGTGCAG” as the sequence, how does the binding signal read?
**A.** 3890 fluorescence intensity (a.u.)

**Q.** With “TCGTGAGGTCTATACAAATTTTGTCCTGTTTTCCCATCTGCGGAGTCACCTAGTGCAG” as the sequence, how does the binding signal read?
**A.** 3170 fluorescence intensity (a.u.)

**Q.** “CCTCCTCGTCAGTTTGCCCTTGTCCACCGCCTCCGCCTCCCGGAGTCACCTAGTGCAG” was tested. Which binding signal did it give?
**A.** 3510 fluorescence intensity (a.u.)

**Q.** With “ACGACTAGGATTCGCTGACACGTGGAAGATCGTTTAACTCCGGAGTCACCTAGTGCAG” as the sequence, how does the binding signal read?
**A.** 11600 fluorescence intensity (a.u.)

**Q.** How did the binding signal turn out when “AAGTACGCTGCCGCCGCTGACATCACCCTCCCTAACCCGGCGGAGTCACCTAGTGCAG” was run?
**A.** 11000 fluorescence intensity (a.u.)

**Q.** For “GTATTTGGTTGGTCACCAACAAATTTCGTTCATGGCTACACGGAGTCACCTAGTGCAG”, which binding signal is on record?
**A.** 3980 fluorescence intensity (a.u.)

**Q.** With “GTCACATCATCATGCATTAATAAAATGCCACGTCATCATCCGGAGTCACCTAGTGCAG” as the sequence, how does the binding signal read?
**A.** 50000 fluorescence intensity (a.u.)

**Q.** How did the binding signal turn out when “GTGCCTCACGGTCCATAGCCAAGTCATTCTCCACGGCGTCCGGAGTCACCTAGTGCAG” was run?
**A.** 4120 fluorescence intensity (a.u.)

**Q.** For “AAGATTTGTGTGATACCACATAAGCCTAACTTCTCTCATCCGGAGTCACCTAGTGCAG”, which binding signal is on record?
**A.** 3330 fluorescence intensity (a.u.)

**Q.** Which binding signal does the source give for “CGTATATCTGATGTGACACGTCCAAATTTTACAGCCCTGGCGGAGTCACCTAGTGCAG” here?
**A.** 4740 fluorescence intensity (a.u.)

**Q.** How did the binding signal turn out when “CGATGGGCTTAACTCCAGCCGACATGCATATGACAAGTTGCGGAGTCACCTAGTGCAG” was run?
**A.** 3920 fluorescence intensity (a.u.)

**Q.** With “ACTCCACCGTACCAACCGCGGCGCGGCCGATCGATCGACGCGGAGTCACCTAGTGCAG” as the sequence, how does the binding signal read?
**A.** 21900 fluorescence intensity (a.u.)

**Q.** With “AGAGCAATATACACATCAAGCTCTGACTCATCTGTAATGTCGGAGTCACCTAGTGCAG” as the sequence, how does the binding signal read?
**A.** 8420 fluorescence intensity (a.u.)

**Q.** With “TCCCACATTTAATTCCCCATACATGTGTCCAAACATTTAACGGAGTCACCTAGTGCAG” as the sequence, how does the binding signal read?
**A.** 27900 fluorescence intensity (a.u.)

**Q.** For “TTGCTGTGCTGTATGTATGTGTGTGCATGATTTTGTCGTTCGGAGTCACCTAGTGCAG”, which binding signal is on record?
**A.** 4230 fluorescence intensity (a.u.)

**Q.** Which binding signal does the source give for “TCTTTGGATTTGAAACTTGGCGGTGGTGGATTGAGGCGGTCGGAGTCACCTAGTGCAG” here?
**A.** 25700 fluorescence intensity (a.u.)

**Q.** How did the binding signal turn out when “GCGCACACCAGCGTGGAGAATGACGTAGCTAAAACCTCACCGGAGTCACCTAGTGCAG” was run?
**A.** 4280 fluorescence intensity (a.u.)

**Q.** “ACAGATTCCGGCAGCCACCGCGCGCACGCGTGACAACGCCCGGAGTCACCTAGTGCAG” was tested. Which binding signal did it give?
**A.** 3560 fluorescence intensity (a.u.)

**Q.** For “GTGATTTGTGTAGGTTCTTTGGAATTCTGACTCAAACCTACGGAGTCACCTAGTGCAG”, which binding signal is on record?
**A.** 3780 fluorescence intensity (a.u.)

**Q.** For “TACTTGGTCTGGTGTACATCATTGGCACTAATACTCCCTTCGGAGTCACCTAGTGCAG”, which binding signal is on record?
**A.** 3400 fluorescence intensity (a.u.)

**Q.** For “ATAATCCGAATAAAGATATGGTCATCGTGGCCATTCACAGCGGAGTCACCTAGTGCAG”, which binding signal is on record?
**A.** 3260 fluorescence intensity (a.u.)

**Q.** Which binding signal does the source give for “CTATGGACACCACCTGCACAATGACCGGATTCTGCACCACCGGAGTCACCTAGTGCAG” here?
**A.** 4570 fluorescence intensity (a.u.)

**Q.** For “TCAAACGTCCACGACCGCTTTCCCCGCACGTAGGCCGTTGCGGAGTCACCTAGTGCAG”, which binding signal is on record?
**A.** 3710 fluorescence intensity (a.u.)

**Q.** With “GGATTTGCACGAATCCTTACGGTGTGAGTCATACACGGTCCGGAGTCACCTAGTGCAG” as the sequence, how does the binding signal read?
**A.** 7100 fluorescence intensity (a.u.)

**Q.** Which binding signal does the source give for “TTCTTTGGTGGGTGCCACGTAGGAGAAACCCAGCAGGAGTCGGAGTCACCTAGTGCAG” here?
**A.** 12000 fluorescence intensity (a.u.)

**Q.** Which binding signal does the source give for “AATTAATCACATGTTATTACCACCTCGTCTTACGTGAGACCGGAGTCACCTAGTGCAG” here?
**A.** 4300 fluorescence intensity (a.u.)

**Q.** With “GGGGCAATGATCACAGGCTTCTGCATAGACGTGTTCCAAGCGGAGTCACCTAGTGCAG” as the sequence, how does the binding signal read?
**A.** 3800 fluorescence intensity (a.u.)

**Q.** For “ACCTGTATTTGTCATTATTTAGTGGACTCTGCTTAGTTCTCGGAGTCACCTAGTGCAG”, which binding signal is on record?
**A.** 3390 fluorescence intensity (a.u.)

**Q.** Which binding signal does the source give for “CGCAGTTGCTTCTGCAAAAGAGATTGATGACAAGGATCACCGGAGTCACCTAGTGCAG” here?
**A.** 3530 fluorescence intensity (a.u.)

**Q.** For “CCGTGTAGTCAATTGAGGCCCAGAACACATGGAAGGCGAACGGAGTCACCTAGTGCAG”, which binding signal is on record?
**A.** 4390 fluorescence intensity (a.u.)

**Q.** How did the binding signal turn out when “GCAATGGATGTGTATGATGTAACGCAAGCAACATTCGTTCCGGAGTCACCTAGTGCAG” was run?
**A.** 4000 fluorescence intensity (a.u.)

**Q.** Which binding signal does the source give for “TACTTATCCAGATTCAAAAGATAAAATTTATTATATTATACGGAGTCACCTAGTGCAG” here?
**A.** 12600 fluorescence intensity (a.u.)

**Q.** Which binding signal does the source give for “GCCGTCAAGATCATGCCGTGGCGGGTCTACGTCGTGCACACGGAGTCACCTAGTGCAG” here?
**A.** 4170 fluorescence intensity (a.u.)
